Data reported in patent publication US20200340060A1, “COMPOSITIONS AND METHODS FOR IDENTIFYING AND TREATING LIVER DISEASES AND MONITORING TREATMENT OUTCOMES” (Gilead Sciences, Inc., priority 2017, published 2020).

Assay: SOMAscan serum proteomics in NASH subjects treated with selonsertib/simtuzumab, baseline and week 24
Set-up: species or system human
Conditions: serum protein marker level, week 24 vs baseline
[1] = lobular inflammation non-improvers

Molecule | Median percent CHG at W24 in improver (lobular inflammation improvers) [%] | Median percent CHG at W24 in Non-improver [1] [%] | Median percent CHG at W24 in improver (hepatic ballooning improvers) [%] | Median percent CHG at W24 in Non-improver (hepatic ballooning non-improvers) [%]
Keratin 18 (protein, UniProt P05783 2-430, looked up) Keratin, type I cytoskeletal …: SFTTRSTFSTNYRSLGSVQAPSYGARPVSSAASVYAGAGGSGSRISVSRSTSFRGGMGSGGLATGIAGGLAGMGGIQNEKETMQSLNDRLASYLDRVRSLETENRRLESKIREHLEKKGPQVRDWSHYFKIIEDLRAQIFANTVDNARIVLQIDNARLAADDFRVKYETELAMRQSVENDIHGLRKVIDDTNITRLQLETEIEALKEELLFMKKNHEEEVKGLQAQIASSGLTVEVDAPKSQDLAKIMADIRAQYDELARKNREELDKYWSQQIEESTTVVTTQSAEVGAAETTLTELRRTVQSLEIDLDSMRNLKASLENSLREVEARYALQMEQLNGILLHLESELAQTRAEGQRQAQEYEALLNIKVKLEAEIATYRRLLEDGEDFNLGDALDSSNSMQTIQKTTTRRIVDGKVVSETNDTKVLRH | 4.1 | −0.96 | – | –
Aminoacylase-1 (protein, UniProt Q03154 1-408, looked up) Aminoacylase-1: MTSKGPEEEHPSVTLFRQYLRIRTVQPKPDYGAAVAFFEETARQLGLGCQKVEVAPGYVVTVLTWPGTNPTLSSILLNSHTDVVPVFKEHWSHDPFEAFKDSEGYIYARGAQDMKCVSIQYLEAVRRLKVEGHRFPRTIHMTFVPDEEVGGHQGMELFVQRPEFHALRAGFALDEGIANPTDAFTVFYSERSPWWVRVTSTGRPGHASRFMEDTAAEKLHKVVNSILAFREKEWQRLQSNPHLKEGSVTSVNLTKLEGGVAYNVIPATMSASFDFRVAPDVDFKAFEEQLQSWCQAAGEGVTLEFAQKWMHPQVTPTDDSNPWWAAFSRVCKDMNLTLEPEIMPAATDNRYIRAVGVPALGFSPMNRTPVLLHDHDERLHEAVFLRGVDIYTRLLPALASVPALPSDS | −37.08 | −11.97 | – | –
CHST2 (protein, UniProt Q9Y4C5 1-530, looked up) Carbohydrate sulfotransferase …: MSRSPQRALPPGALPRLLQAAPAAAPRALLPQWPRRPGRRWPASPLGMKVFRRKALVLCAGYALLLVLTMLNLLDYKWHKEPLQQCNPDGPLGAAAGAAGGSWGRPGPPPAGPPRAHARLDLRTPYRPPAAAVGAAPAAAAGMAGVAAPPGNGTRGTGGVGDKRQLVYVFTTWRSGSSFFGELFNQNPEVFFLYEPVWHVWQKLYPGDAVSLQGAARDMLSALYRCDLSVFQLYSPAGSGGRNLTTLGIFGAATNKVVCSSPLCPAYRKEVVGLVDDRVCKKCPPQRLARFEEECRKYRTLVIKGVRVFDVAVLAPLLRDPALDLKVIHLVRDPRAVASSRIRSRHGLIRESLQVVRSRDPRAHRMPFLEAAGHKLGAKKEGVGGPADYHALGAMEVICNSMAKTLQTALQPPDWLQGHYLVVRYEDLVGDPVKTLRRVYDFVGLLVSPEMEQFALNMTSGSGSSSKPFVVSARNATQAANAWRTALTFQQIKQVEEFCYQPMAVLGYERVNSPEEVKDLSKTLLRKPRL | −5.34 | 1.67 | – | –
NADPH-P450 Oxidoreductase (protein, UniProt P16435 2-677, looked up) NADPH--cytochrome P450 …: GDSHVDTSSTVSEAVAEEVSLFSMTDMILFSLIVGLLTYWFLFRKKKEEVPEFTKIQTLTSSVRESSFVEKMKKTGRNIIVFYGSQTGTAEEFANRLSKDAHRYGMRGMSADPEEYDLADLSSLPEIDNALVVFCMATYGEGDPTDNAQDFYDWLQETDVDLSGVKFAVFGLGNKTYEHFNAMGKYVDKRLEQLGAQRIFELGLGDDDGNLEEDFITWREQFWPAVCEHFGVEATGEESSIRQYELVVHTDIDAAKVYMGEMGRLKSYENQKPPFDAKNPFLAAVTTNRKLNQGTERHLMHLELDISDSKIRYESGDHVAVYPANDSALVNQLGKILGADLDVVMSLNNLDEESNKKHPFPCPTSYRTALTYYLDITNPPRTNVLYELAQYASEPSEQELLRKMASSSGEGKELYLSWVVEARRHILAILQDCPSLRPPIDHLCELLPRLQARYYSIASSSKVHPNSVHICAVVVEYETKAGRINKGVATNWLRAKEPAGENGGRALVPMFVRKSQFRLPFKATTPVIMVGPGTGVAPFIGFIQERAWLRQQGKEVGETLLYYGCRRSDEDYLYREELAQFHRDGALTQLNVAFSREQSHKVYVQHLLKQDREHLWKLIEGGAHIYVCGDARNMARDVQNTFYDIVAELGAMEHAQAVDYIKKLMTKGRYSLDVWS | −37.395 | −8.01 | – | –
CBG (protein, UniProt P08185 23-405, looked up) Corticosteroid-binding …: MDPNAAYVNMSNHHRGLASANVDFAFSLYKHLVALSPKKNIFISPVSISMALAMLSLGTCGHTRAQLLQGLGFNLTERSETEIHQGFQHLHQLFAKSDTSLEMTMGNALFLDGSLELLESFSADIKHYYESEVLAMNFQDWATASRQINSYVKNKTQGKIVDLFSGLDSPAILVLVNYIFFKGTWTQPFDLASTREENFYVDETTVVKVPMMLQSSTISYLHDSELPCQLVQMNYVGNGTVFFILPDKGKMNTVIAALSRDTINRWSAGLTSSQVDLYIPKVTISGVYDLGDVLEEMGIADLFTNQANFSRITQDAQLKSSKVVHKAVLQLNEEGVDTAGSTGVTLNLTSKPIILRFNQPFIIMIFDHFTWSSLFLARVMNPV | 1.495 | −2.61 | 1.44 | −2.655
CD5L (protein, UniProt O43866 20-347, looked up) CD5 antigen-like: SPSGVRLVGGLHRCEGRVEVEQKGQWGTVCDDGWDIKDVAVLCRELGCGAASGTPSGILYEPPAEKEQKVLIQSVSCTGTEDTLAQCEQEEVYDCSHDEDAGASCENPESSFSPVPEGVRLADGPGHCKGRVEVKHQNQWYTVCQTGWSLRAAKVVCRQLGCGRAVLTQKRCNKHAYGRKPIWLSQMSCSGREATLQDCPSGPWGKNTCNHDEDTWVECEDPFDLRLVGGDNLCSGRLEVLHKGVWGSVCDDNWGEKEDQVVCKQLGCGKSLSPSFRDRKCYGPGVGRIWLDNVRCSGEEQSLEQCQHRFWGFHDCTHQEDVAVICSG | −6.625 | 6.76 | – | –
LYVE1 (protein, UniProt Q9Y5Y7 20-322, looked up) Lymphatic vessel endothelial …: LVQGSLRAEELSIQVSCRIMGITLVSKKANQQLNFTEAKEACRLLGLSLAGKDQVETALKASFETCSYGWVGDGFVVISRISPNPKCGKNGVGVLIWKVPVSRQFAAYCYNSSDTWTNSCIPEIITTKDPIFNTQTATQTTEFIVSDSTYSVASPYSTIPAPTTTPPAPASTSIPRRKKLICVTEVFMETSTMSTETEPFVENKAAFKNEAAGFGGVPTALLVLALLFFGAAAGLGFCYVKRYVKAFPFTNKNQQKEMIETKVVKEEKANDSNPNEESKKTDKNPEESKSPSKTTVRCLEAEV | −4.21 | 4.61 | – | –
